Some of the results follow.
Key:
Assay in all cases: log2 fold change, soluble protein after heating vs DMSO (PISA); higher = thermal stabilisation; K562 lysate, 10 uM; active = over 0.2 and 3.5 SD of the protein, either way, in both replicates (recomputed)
[1] = compound: NCC(=O)Nc1ccc(-n2nc(C(F)(F)F)cc2-c2ccc3c(ccc4ccccc43)c2)cc1
In short: (§1)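 To prepare the extract, K562 pellets were dounce-homogenised in PBS pH 7.4 with 1 mM MgCl2, giving crude material at 1 mg/mL protein. This was treated with 10 μM compound for 30 min, then heated in aliquots for 3 min over 48°C-58°C before pooling and addition of NP-40 to 0.5% at 4°C. Centrifugation at 21,000xg for 90 min left soluble protein in the supernatant, which TMTpro 16plex LC-MS/MS quantified with equalised channel sums. Results are log-two fold changes in thermal stability compared with solvent controls, from duplicates.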

The chains behind the UniProt entries cited, without tags or fusion partners. Where a name states a change or a piece, a line headed by the entry shows the natural chain unless it says otherwise.
UniProt P60842, whole entry, looked up: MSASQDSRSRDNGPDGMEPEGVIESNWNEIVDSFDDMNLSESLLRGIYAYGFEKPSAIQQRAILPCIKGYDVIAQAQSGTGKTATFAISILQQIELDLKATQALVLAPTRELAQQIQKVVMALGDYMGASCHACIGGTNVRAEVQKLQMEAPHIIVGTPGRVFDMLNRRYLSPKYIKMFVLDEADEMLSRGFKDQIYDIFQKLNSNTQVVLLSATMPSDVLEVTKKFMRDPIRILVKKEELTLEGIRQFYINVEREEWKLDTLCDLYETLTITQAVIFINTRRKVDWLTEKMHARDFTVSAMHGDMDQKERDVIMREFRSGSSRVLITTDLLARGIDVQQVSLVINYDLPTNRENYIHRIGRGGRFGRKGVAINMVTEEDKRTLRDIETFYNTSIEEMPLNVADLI
UniProt O43414: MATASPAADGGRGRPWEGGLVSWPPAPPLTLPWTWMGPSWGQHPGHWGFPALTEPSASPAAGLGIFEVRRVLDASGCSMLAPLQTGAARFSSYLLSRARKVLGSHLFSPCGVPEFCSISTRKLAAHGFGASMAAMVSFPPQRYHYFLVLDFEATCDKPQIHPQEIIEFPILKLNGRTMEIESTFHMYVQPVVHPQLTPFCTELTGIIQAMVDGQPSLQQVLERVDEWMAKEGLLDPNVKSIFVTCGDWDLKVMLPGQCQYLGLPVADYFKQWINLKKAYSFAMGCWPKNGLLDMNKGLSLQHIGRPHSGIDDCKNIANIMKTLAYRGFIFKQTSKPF
UniProt Q14241: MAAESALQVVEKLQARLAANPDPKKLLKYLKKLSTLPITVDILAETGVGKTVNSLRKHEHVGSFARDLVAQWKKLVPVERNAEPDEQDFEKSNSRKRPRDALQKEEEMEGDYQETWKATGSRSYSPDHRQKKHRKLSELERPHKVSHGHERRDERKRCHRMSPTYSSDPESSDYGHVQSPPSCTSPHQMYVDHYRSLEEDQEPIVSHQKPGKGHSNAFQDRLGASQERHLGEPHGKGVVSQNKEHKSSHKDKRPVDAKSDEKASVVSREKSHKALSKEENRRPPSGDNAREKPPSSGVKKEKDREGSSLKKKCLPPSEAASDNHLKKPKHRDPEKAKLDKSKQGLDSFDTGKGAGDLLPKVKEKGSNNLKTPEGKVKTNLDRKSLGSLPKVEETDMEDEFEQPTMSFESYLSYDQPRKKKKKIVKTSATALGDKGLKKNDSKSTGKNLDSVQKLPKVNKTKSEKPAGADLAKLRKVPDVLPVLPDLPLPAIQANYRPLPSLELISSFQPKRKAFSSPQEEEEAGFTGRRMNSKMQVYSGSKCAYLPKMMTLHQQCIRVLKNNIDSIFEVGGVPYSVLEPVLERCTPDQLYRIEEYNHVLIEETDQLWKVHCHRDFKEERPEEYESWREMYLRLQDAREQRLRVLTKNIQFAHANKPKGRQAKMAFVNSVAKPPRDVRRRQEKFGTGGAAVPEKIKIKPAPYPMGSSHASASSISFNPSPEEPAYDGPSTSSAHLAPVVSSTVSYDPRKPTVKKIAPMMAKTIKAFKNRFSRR
UniProt P49770: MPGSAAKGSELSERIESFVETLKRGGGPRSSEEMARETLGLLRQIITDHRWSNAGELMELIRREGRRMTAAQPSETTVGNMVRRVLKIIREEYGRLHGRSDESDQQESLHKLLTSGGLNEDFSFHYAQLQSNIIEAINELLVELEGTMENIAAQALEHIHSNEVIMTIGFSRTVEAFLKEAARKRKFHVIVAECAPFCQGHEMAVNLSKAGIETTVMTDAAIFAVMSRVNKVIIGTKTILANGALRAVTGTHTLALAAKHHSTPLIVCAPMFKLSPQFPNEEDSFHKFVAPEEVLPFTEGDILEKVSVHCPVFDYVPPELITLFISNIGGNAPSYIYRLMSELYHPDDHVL
UniProt Q9NZ08: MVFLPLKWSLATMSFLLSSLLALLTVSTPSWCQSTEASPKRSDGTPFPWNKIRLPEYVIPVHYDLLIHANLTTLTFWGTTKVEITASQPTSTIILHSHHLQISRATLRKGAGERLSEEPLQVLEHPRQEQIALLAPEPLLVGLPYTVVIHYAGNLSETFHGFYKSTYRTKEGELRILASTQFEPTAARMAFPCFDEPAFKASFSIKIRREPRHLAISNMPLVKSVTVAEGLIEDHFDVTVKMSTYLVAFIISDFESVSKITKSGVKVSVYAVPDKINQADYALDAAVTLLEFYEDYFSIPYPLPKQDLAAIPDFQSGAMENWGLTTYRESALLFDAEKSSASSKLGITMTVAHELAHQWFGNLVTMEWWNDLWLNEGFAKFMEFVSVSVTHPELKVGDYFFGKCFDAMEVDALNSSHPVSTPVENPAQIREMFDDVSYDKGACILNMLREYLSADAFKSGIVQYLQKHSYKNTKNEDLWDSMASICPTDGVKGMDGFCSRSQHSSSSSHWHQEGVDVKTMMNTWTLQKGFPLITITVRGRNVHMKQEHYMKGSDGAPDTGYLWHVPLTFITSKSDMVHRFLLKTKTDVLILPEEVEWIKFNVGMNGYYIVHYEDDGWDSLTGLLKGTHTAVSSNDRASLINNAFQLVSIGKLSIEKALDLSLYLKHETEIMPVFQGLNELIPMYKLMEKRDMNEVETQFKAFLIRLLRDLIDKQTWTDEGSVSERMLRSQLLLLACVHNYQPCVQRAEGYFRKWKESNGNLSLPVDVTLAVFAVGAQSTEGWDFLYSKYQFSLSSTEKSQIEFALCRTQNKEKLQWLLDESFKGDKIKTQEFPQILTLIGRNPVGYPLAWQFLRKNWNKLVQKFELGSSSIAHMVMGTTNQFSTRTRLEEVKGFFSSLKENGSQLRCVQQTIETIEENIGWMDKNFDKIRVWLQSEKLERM
UniProt Q96RQ1: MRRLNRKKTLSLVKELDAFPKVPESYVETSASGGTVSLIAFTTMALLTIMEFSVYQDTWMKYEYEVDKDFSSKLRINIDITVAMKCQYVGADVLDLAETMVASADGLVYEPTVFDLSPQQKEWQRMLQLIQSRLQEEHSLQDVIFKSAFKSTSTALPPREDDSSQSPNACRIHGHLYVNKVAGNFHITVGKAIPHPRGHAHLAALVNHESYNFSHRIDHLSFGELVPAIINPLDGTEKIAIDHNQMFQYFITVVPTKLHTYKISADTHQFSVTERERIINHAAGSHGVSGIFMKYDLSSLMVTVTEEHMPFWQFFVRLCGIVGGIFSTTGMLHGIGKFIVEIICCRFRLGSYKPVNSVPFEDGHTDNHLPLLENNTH
UniProt Q53HC9: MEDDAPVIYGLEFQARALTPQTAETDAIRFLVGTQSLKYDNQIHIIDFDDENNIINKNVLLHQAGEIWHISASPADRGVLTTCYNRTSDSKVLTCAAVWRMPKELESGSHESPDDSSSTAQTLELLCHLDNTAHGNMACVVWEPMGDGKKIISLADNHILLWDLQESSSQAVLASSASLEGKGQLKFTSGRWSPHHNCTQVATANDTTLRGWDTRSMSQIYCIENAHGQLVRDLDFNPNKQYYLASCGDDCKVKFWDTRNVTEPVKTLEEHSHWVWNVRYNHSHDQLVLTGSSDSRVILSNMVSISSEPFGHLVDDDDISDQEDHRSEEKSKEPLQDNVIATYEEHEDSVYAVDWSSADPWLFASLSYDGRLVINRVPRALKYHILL
UniProt O95208: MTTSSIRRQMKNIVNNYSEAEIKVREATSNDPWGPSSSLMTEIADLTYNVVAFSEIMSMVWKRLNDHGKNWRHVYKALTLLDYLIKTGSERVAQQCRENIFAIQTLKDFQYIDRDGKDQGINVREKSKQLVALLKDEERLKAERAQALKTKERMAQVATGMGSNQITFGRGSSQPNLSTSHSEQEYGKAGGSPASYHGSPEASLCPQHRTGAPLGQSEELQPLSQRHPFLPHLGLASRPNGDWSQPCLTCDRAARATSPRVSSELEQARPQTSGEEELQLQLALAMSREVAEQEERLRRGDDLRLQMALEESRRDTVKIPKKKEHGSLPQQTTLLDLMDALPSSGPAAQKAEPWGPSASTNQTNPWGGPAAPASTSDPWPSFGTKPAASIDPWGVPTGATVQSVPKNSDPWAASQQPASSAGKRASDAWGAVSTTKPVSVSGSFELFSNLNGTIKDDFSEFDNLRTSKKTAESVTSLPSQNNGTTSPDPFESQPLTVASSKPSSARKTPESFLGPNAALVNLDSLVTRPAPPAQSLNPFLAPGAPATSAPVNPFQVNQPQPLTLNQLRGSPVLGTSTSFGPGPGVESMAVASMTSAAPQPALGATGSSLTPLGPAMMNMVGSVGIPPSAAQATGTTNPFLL
UniProt Q9BQI3, whole entry, looked up: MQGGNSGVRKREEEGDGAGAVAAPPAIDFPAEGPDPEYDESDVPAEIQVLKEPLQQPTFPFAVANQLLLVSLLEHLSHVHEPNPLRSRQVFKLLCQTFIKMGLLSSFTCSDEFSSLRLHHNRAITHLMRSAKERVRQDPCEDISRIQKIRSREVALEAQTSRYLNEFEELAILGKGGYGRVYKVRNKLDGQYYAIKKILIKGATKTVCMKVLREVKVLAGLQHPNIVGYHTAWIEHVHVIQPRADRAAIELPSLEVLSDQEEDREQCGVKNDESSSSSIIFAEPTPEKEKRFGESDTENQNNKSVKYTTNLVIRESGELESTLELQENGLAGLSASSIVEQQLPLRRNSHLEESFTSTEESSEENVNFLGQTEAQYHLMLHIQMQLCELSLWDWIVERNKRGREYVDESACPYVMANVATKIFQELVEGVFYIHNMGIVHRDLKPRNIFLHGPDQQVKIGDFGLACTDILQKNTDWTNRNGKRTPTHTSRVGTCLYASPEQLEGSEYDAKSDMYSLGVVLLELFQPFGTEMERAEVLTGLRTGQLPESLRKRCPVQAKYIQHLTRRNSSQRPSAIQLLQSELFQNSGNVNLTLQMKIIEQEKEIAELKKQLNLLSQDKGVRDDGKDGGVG
UniProt Q8TE02: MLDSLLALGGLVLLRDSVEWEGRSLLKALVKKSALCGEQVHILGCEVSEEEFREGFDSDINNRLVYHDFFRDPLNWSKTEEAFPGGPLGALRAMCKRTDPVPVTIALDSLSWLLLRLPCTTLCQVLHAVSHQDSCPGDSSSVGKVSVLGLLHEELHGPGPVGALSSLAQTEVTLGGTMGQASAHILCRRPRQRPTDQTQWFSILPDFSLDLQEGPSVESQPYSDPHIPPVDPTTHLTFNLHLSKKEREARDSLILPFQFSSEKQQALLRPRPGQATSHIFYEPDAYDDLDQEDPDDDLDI
UniProt O15371, whole entry, looked up: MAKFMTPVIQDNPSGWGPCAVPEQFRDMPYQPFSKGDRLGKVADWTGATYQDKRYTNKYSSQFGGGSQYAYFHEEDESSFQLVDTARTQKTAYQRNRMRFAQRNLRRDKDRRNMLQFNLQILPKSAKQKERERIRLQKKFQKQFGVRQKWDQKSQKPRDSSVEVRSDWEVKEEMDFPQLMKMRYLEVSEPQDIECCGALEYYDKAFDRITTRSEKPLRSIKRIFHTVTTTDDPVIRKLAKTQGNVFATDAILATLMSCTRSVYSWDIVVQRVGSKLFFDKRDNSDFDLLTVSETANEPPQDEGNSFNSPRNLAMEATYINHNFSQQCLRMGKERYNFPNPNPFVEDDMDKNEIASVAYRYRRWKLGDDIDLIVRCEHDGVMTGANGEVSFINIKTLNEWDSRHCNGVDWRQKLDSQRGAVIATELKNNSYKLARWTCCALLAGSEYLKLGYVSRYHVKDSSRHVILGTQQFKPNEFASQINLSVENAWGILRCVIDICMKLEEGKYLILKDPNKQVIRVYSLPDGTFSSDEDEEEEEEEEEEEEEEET
UniProt Q9P0I2: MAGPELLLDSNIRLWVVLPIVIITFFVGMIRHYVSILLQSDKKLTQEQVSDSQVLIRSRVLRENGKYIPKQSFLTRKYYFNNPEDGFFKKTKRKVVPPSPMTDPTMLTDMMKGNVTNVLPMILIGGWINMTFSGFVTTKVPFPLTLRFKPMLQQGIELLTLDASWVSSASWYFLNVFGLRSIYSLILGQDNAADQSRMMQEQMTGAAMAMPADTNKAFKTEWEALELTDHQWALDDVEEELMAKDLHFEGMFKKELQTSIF
UniProt P55199: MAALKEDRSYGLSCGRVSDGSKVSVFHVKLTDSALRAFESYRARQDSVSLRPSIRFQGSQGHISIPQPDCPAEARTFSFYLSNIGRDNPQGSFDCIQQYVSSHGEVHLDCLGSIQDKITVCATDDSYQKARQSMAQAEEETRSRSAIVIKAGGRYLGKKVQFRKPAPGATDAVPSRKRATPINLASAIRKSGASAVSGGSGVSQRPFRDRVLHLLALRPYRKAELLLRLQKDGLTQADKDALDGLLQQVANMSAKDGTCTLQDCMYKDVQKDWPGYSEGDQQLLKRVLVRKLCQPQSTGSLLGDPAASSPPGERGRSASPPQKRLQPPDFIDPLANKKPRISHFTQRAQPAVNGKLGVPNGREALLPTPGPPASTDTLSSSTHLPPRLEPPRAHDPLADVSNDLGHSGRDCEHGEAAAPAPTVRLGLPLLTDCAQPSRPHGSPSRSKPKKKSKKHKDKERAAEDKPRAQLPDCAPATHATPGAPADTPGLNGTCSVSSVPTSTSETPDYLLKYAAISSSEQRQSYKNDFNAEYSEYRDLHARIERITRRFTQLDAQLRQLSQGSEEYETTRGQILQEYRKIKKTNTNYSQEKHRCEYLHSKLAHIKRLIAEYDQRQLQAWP

vorinostat = compound: O=C(CCCCCCC(=O)Nc1ccccc1)NO [vorinostat]
In short: as §1

silmitasertib = compound: O=C(O)c1ccc2c(c1)nc(Nc1cccc(Cl)c1)c1ccncc12 [silmitasertib]
In short: as §1

[2] = compound: O=C1NC(=O)C(c2cnc3ccccn23)=C1c1cn2c3c(cc(F)cc13)CN(C(=O)N1CCCCC1)CC2
In short: as §1

entospletinib = compound: c1cn2cc(-c3ccc4cn[nH]c4c3)nc(Nc3ccc(N4CCOCC4)cc3)c2n1 [entospletinib]
In short: as §1

| Target | log2 fold change [1] | log2 fold change (vorinostat) | log2 fold change (silmitasertib) | log2 fold change [2] | log2 fold change (entospletinib) |
| --- | --- | --- | --- | --- | --- |
| EIF5 (UniProt P55010) | inactive: 0.002 | inactive: 0.051 | inactive: -0.017 | inactive: -0.002 | inactive: 0.003 |
| EIF3E (UniProt P60228) | inactive: -0.044 | inactive: -0.146 | inactive: 0.047 | inactive: -0.027 | inactive: 0.023 |
| EIF3B isoform 2 (UniProt P55884) | inactive: -0.005 | inactive: -0.017 | inactive: 0.013 | inactive: -0.025 | inactive: 0.011 |
| ELF1 (UniProt P32519) | inactive: 0.058 | inactive: -0.105 | inactive: 0.009 | inactive: -0.043 | inactive: 0.048 |
| ELAC2 (UniProt Q9BQ52) | inactive: 0.014 | inactive: 0.091 | inactive: 0.005 | inactive: 0.02 | inactive: 0.012 |
| EIF2S2 (UniProt P20042) | inactive: 0.008 | inactive: 0.096 | inactive: -0.005 | inactive: 0.011 | inactive: -0.016 |
| EIF3C (UniProt Q99613) | inactive: -0.004 | inactive: -0.167 | inactive: 0.019 | inactive: 0.016 | inactive: 0.009 |
| ENTPD5 (UniProt O75356) | inactive: -0.041 | inactive: 0.045 | inactive: 0.011 | inactive: -0.027 | inactive: 0.022 |
| EPRS (UniProt P07814) | inactive: -0.01 | active: -0.365 | inactive: 0.037 | inactive: 0.009 | inactive: 0.021 |
| EIF4G1 (UniProt Q04637) | inactive: 0.006 | inactive: -0.202 | inactive: -0.006 | inactive: -0.016 | inactive: 0.007 |
| ENPP3 (UniProt O14638) | inactive: -0.024 | inactive: 0.169 | inactive: -0.077 | inactive: 0.009 | inactive: -0.03 |
| ENGASE (UniProt Q8NFI3) | inactive: -0.01 | active: -0.337 | inactive: 0.05 | inactive: -0.013 | inactive: -0.004 |
| EMC4 (UniProt Q5J8M3) | inactive: -0.055 | inactive: -0.037 | inactive: 0.09 | inactive: -0.02 | inactive: -0.013 |
| EML4 (UniProt Q9HC35) | inactive: -0.008 | inactive: -0.086 | inactive: 0.021 | inactive: -0.006 | inactive: 0.003 |
| EML2 isoform 3 (UniProt O95834) | inactive: -0.045 | inactive: -0.004 | inactive: 0.023 | inactive: -0.036 | inactive: 0.001 |
| ERBIN isoform 8 (UniProt Q96RT1) | inactive: -0.016 | inactive: -0.008 | inactive: -0.001 | inactive: -0.017 | inactive: -0.002 |
| EPB41, A0A2R8Y6D0 | inactive: 0.082 | inactive: 0.094 | inactive: 0.037 | inactive: -0.08 | inactive: 0.016 |
| EIF4A1 (UniProt P60842) | inactive: 0.04 | inactive: 0.066 | inactive: -0.012 | inactive: 0.015 | inactive: 0.034 |
| ERCC2 (UniProt P18074) | inactive: -0.024 | inactive: -0.179 | inactive: -0.027 | inactive: -0.058 | inactive: 0.012 |
| ERI3 (UniProt O43414) | inactive: -0.045 | inactive: -0.069 | inactive: 0.017 | inactive: -0.007 | inactive: 0.012 |
| EIF2AK4 (UniProt Q9P2K8) | inactive: 0.035 | inactive: -0.069 | inactive: 0.017 | inactive: 0.004 | inactive: -0.012 |
| ENY2 (UniProt Q9NPA8) | inactive: -0.066 | inactive: 0.118 | inactive: -0.032 | inactive: 0.016 | inactive: -0.018 |
| ERGIC3 isoform 3 (UniProt Q9Y282) | inactive: -0.035 | inactive: 0.142 | inactive: 0.055 | inactive: -0.006 | inactive: -0.021 |
| ERC1 (UniProt X6RLX0) | inactive: 0.02 | inactive: 0.084 | inactive: -0.011 | inactive: -0.015 | inactive: -0.05 |
| EPHX1 (UniProt P07099) | inactive: -0.001 | inactive: 0.129 | inactive: -0.01 | inactive: 0.033 | inactive: -0.017 |
| ELOA (UniProt Q14241) | inactive: -0.031 | inactive: -0.008 | inactive: -0.026 | inactive: 0 | inactive: 0 |
| EIF2B4 isoform 2 (UniProt Q9UI10) | inactive: 0.023 | inactive: -0.209 | inactive: 0.013 | inactive: -0.002 | inactive: 0.012 |

| Target | log2 fold change [1] | log2 fold change (vorinostat) | log2 fold change (silmitasertib) | log2 fold change [2] | log2 fold change (entospletinib) |
| --- | --- | --- | --- | --- | --- |
| EIF5A2 (UniProt Q9GZV4) | inactive: 0.115 | inactive: -0.107 | inactive: 0.015 | inactive: -0.088 | inactive: 0.011 |
| EIF2B2 (UniProt P49770) | inactive: -0.036 | inactive: -0.019 | inactive: 0.03 | inactive: -0.018 | inactive: -0.002 |
| ENO3 (UniProt P13929) | inactive: 0.087 | inactive: -0.009 | inactive: 0.062 | inactive: 0.046 | inactive: -0.01 |
| ELMOD2 (UniProt Q8IZ81) | inactive: 0.066 | inactive: -0.003 | inactive: 0.031 | inactive: 0.003 | inactive: 0.036 |
| EIF2S1 (UniProt P05198) | inactive: 0.013 | inactive: 0.106 | inactive: 0.004 | inactive: -0.013 | inactive: 0.007 |
| ELP6 (UniProt Q0PNE2) | inactive: 0.036 | inactive: -0.111 | inactive: -0.014 | inactive: -0.01 | inactive: -0.019 |
| ERAP1 isoform 2 (UniProt Q9NZ08) | inactive: -0.018 | inactive: 0.074 | inactive: 0.003 | inactive: -0.033 | inactive: 0.01 |
| ERGIC2 (UniProt Q96RQ1) | inactive: 0.004 | inactive: 0.123 | inactive: 0.028 | inactive: -0.019 | inactive: 0.042 |
| EIF2B4 (UniProt Q9UI10) | inactive: 0.028 | inactive: -0.135 | inactive: 0.013 | inactive: -0.006 | inactive: -0.05 |
| ERI1 (UniProt Q8IV48) | inactive: -0.001 | active: -0.221 | inactive: -0.035 | inactive: -0.017 | inactive: 0.041 |
| EIPR1 (UniProt Q53HC9) | inactive: 0.001 | inactive: 0.078 | inactive: 0.005 | inactive: -0.031 | inactive: -0.048 |
| EPN1 (UniProt Q9Y6I3) | inactive: -0.004 | inactive: 0.105 | inactive: -0.035 | inactive: 0.007 | inactive: 0.006 |
| EPN2 (UniProt O95208) | inactive: -0.005 | inactive: 0.156 | inactive: 0.02 | inactive: -0.001 | inactive: 0.012 |
| ENO1 isoform 2 (UniProt P06733) | inactive: -0.008 | inactive: 0.099 | inactive: 0.045 | inactive: 0.005 | inactive: -0.05 |
| ELP3 (UniProt Q9H9T3) | inactive: -0.003 | inactive: 0.015 | inactive: -0.017 | inactive: 0.001 | inactive: 0.012 |
| EIF3A (UniProt Q14152) | inactive: 0.014 | inactive: -0.06 | inactive: 0.033 | inactive: 0.011 | inactive: 0.04 |
| EIF2AK1 (UniProt Q9BQI3) | inactive: -0.089 | inactive: -0.18 | inactive: 0.03 | inactive: -0.059 | inactive: 0.009 |
| ELP5 isoform 4 (UniProt Q8TE02) | inactive: 0.009 | inactive: -0.141 | inactive: -0.014 | inactive: -0.002 | inactive: 0.038 |
| ELP2 isoform 6 (UniProt Q6IA86) | inactive: -0.022 | inactive: -0.122 | inactive: -0.004 | inactive: -0.035 | inactive: 0.036 |
| ERGIC1 (UniProt Q969X5) | inactive: 0.018 | inactive: 0.05 | inactive: -0.003 | inactive: -0.03 | inactive: -0.011 |
| EIF2S3 (UniProt P41091) | inactive: 0.012 | inactive: 0.1 | inactive: -0.013 | inactive: -0.006 | inactive: 0.047 |
| EIF3D (UniProt O15371) | inactive: 0.009 | inactive: -0.118 | inactive: 0.035 | inactive: 0.026 | inactive: 0.029 |
| EMC3 (UniProt Q9P0I2) | inactive: 0.025 | inactive: 0.109 | inactive: 0.008 | inactive: -0.003 | inactive: -0.007 |
| ELL (UniProt P55199) | inactive: 0.12 | inactive: -0.153 | inactive: -0.038 | inactive: -0.033 | inactive: -0.003 |
| EIF3L (UniProt Q9Y262) | inactive: -0.007 | inactive: 0.062 | inactive: -0.004 | inactive: -0.013 | inactive: 0.012 |
| EMC7 (UniProt Q9NPA0) | inactive: 0.015 | inactive: 0.085 | inactive: -0.007 | inactive: -0.018 | inactive: -0.023 |

A second format for some results above.
ELP2 isoform 6 (UniProt Q6IA86)
  log2 fold change [1]: inactive: -0.022; log2 fold change (vorinostat): inactive: -0.122; log2 fold change (silmitasertib): inactive: -0.004; log2 fold change [2]: inactive: -0.035; log2 fold change (entospletinib): inactive: 0.036
EIF3L (UniProt Q9Y262)
  log2 fold change [1]: inactive: -0.007; log2 fold change (vorinostat): inactive: 0.062; log2 fold change (silmitasertib): inactive: -0.004; log2 fold change [2]: inactive: -0.013; log2 fold change (entospletinib): inactive: 0.012

Reference: the supplement of paper PMC10849652
